We go through 2 molecules from publication PMC3291534.

For experiment [1], the target named is mouse MNS1 (two-hybrid fusion) (mouse) (UniProt Q61884). Nature of the experiment: two-hybrid; yeast two-hybrid assay of mouse MNS1 with itself; data not shown.
The next experiment deals with T1, GST-MNS1Δ (mouse) (UniProt Q61884).
T1 sequence: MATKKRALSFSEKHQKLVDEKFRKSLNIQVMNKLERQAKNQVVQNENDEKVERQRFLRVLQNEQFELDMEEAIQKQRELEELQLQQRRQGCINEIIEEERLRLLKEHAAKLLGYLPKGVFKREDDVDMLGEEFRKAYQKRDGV
Nature of the experiment: pull-down; GST fusion proteins expressed in E. coli as bait; full-length MNS1 in vitro translated in the presence of [35S]methionine; GST and beads alone as controls; only the target purified.

These are yes or no findings as the source states them, for the method shown. For some assays here: Binding seen in cells or lysates may run through a third protein. Some results given as binding are weak or reduced against the parent protein; the word gives no strength. Sequences can lack the tags named with a protein.

B1: mouse MNS1 (two-hybrid fusion) (protein, UniProt Q61884 1-491)
chain: MATKKRALSFSEKHQKLVDEKFRKSLNIQVMNKLERQAKNQVVQNENDEKVERQRFLRVLQNEQFELDMEEAIQKAEANKMLRDRQLEQEERLANELARLKHESLKDKKMRQQVRENSIELRELEQKLKAAYMNKERAAQIVEKDAMKYEQMKRDAEIERIMMEEHDRLLKEESAKQERRNKERAQYYLDLEKQLEDQERRKQEAYEQLLKEKLMIDEIVRKIYEEDQVERQQKLEKKNAIQKYIEEFQRAQDFWRQKKREEMEEENRKIIEFANIQEQREGERMARVHEIEEKRVQRQNLLMKQLEETLRQRDDLEQVRQELYQEEQAEIIKLKVKEEAELRLRRQREMKQDFEDQMALKELILQAAKEEEETFKKAMLAKFAEDDRIELMNAQKQRMKQLEHKRAVEKLIEERRSQFLADKQRELEELQLQQRRQGCINEIIEEERLRLLKEHAAKLLGYLPKGVFKREDDVDMLGEEFRKAYQKRDGV
Consider B1, for which, in experiment [1], the binding result was “binds”.

B2: full-length MNS1, in vitro translated (protein, UniProt Q61884 1-491)
chain: B1 chain
modifications: [35S]methionine label
On to B2, for which, in the experiment with GST-MNS1Δ (mouse), the binding entry is on record as “binds”.
